For three substances, binding results are on record in patent US20050112748A1.

Chains of the proteins cited; added tags and fusions are not shown. Lines headed by an entry give the natural chain unless they say otherwise; changes in a name come on top. Residues count along the entry.
UniProt Q95107, residues 1-275: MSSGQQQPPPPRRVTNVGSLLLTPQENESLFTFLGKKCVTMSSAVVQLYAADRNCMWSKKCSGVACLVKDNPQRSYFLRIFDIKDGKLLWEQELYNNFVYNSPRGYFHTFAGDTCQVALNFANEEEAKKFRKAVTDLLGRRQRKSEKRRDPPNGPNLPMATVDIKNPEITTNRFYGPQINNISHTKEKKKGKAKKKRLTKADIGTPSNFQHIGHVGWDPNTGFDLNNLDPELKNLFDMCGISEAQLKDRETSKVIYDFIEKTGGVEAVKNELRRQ
UniProt Q9ER71: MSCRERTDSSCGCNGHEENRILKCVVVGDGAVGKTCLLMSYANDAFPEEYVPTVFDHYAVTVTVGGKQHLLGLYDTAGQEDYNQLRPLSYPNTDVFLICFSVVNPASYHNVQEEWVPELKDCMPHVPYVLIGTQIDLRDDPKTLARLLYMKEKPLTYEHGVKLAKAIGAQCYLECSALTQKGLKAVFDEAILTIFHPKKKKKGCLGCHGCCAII

The target of assay [1] is N-terminal portion of N-WASP (1st to 275th amino acid residues) fused to the Gal4 activation domain (pACT2) (UniProt Q95107). The assay can be described thus: yeast two-hybrid, beta-galactosidase colony-lift filter assay.
Assay [2] has the same target. The assay can be described thus: summary of the yeast two-hybrid interaction assay and the pull-down assay.

These are yes or no findings as the source states them, for the method shown. Some entries that bind do so weakly or less than the wild type.

Take “Constitutively active mouse RhoT(G30V) fused to the Gal4 DNA-binding domain (pGBT9) (from UniProt Q9ER71 1-214) (enzyme)”: in assay [1], the binding result is “binds”.

As to “Mouse Tc10 wild-type fused to the Gal4 DNA-binding domain (pGBT9) (from UniProt P04386 1-147; Q8R527 1-205) (enzyme)”, the binding result in assay [1] and in assay [2] was “binds” in each case.

Regarding “Cdc42 wild-type fused to the Gal4 DNA-binding domain (pGBT9) (from UniProt P04386 1-147; P60766 1-191) (enzyme)”, the binding entry in assay [1] and in assay [2] was “binds” each time.
